The structures appear in SMILES notation. Values joined by “and” are separate entries in the source; they are usually repeats but may differ in a detail not shown here. Identical values can stand only once. The list shows a part of the results. These are further read-outs of the screen, such as a control signal, another cell line or another target. No call is given for them. Compounds called inactive in the main read-out are mostly missing here. Potencies come from curve fits of mixed quality, noted in brackets.

The source of these data is PubChem BioAssay AID1487 (National Center for Advancing Translational Sciences (NCATS), 2009).

The nature of the test: qHTS Assay for Modulators of Lamin A Splicing. The following applies: HeLa LMNA splicing GFP/RFP minigene ratio, 48 h. The gist of the method: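 S3 HeLa stable clones carrying a lamin A-EGFP splicing minigene plus DsRed2 were seeded at 600 cells/well in Opti-MEM with 2% FBS, pin-dosed and incubated 48 h at 37°C. Acumen cytometry (488 nm) gave the GFP/RFP total-intensity ratio.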

Where [1] appears, read: measured here: RFP viability control channel.
Where [2] appears, read: measured here: GFP splicing reporter channel.

Broadly, the AC50 is the concentration giving half of the maximal activity seen. For `COc1ccc(CNc2nc3c(c(=O)[nH]c(=O)n3C)n2CCCc2ccccc2)cc1`, the AC50 under setting [1] was 35.5 µM [rising, single point]. Same read-out and setting: the same measure for `Cc1cc(C)nc(N2CCCC(C(=O)Nc3nc4ccc(S(C)(=O)=O)cc4s3)C2)n1` (stereo unspecified): 31.6 µM [rising, single point]. Turning to `S=C(NCCSCc1c(Cl)cccc1Cl)Nc1ccccc1`, the AC50 under setting [2] was 35.5 µM [falling, single point] and the AC50 under setting [1] is 35.5 µM [falling, single point]. For the molecule `CCOC(=O)c1ccc(NC(=S)N(CCCN2CCCC(C)C2)Cc2cccs2)cc1` (stereo unspecified), under setting [2], the AC50 was 14.1 µM [falling, partial curve, poor fit]. `COc1ccccc1NC(=S)NCc1cccnc1`: the AC50 was 25.1 µM [rising, single point] under setting [2] and 0.251 µM [rising, partial curve] under setting [1]. As for `COc1cccc(CC(=O)Nc2ccc3nc(Nc4cccc(C(F)(F)F)c4)cc(C)c3c2)c1`, the AC50 by setting is: under setting [2], 0.0282 µM [falling, full curve, poor fit]; under setting [1], 0.02 µM [falling, full curve]. As to `COc1ccc(CC(=O)c2ccc(OC)c(OC)c2C)cc1OC`, the AC50 is, setting by setting: under setting [2], 6.31 µM [rising, partial curve]; under setting [1], 7.08 µM [rising, partial curve]. For the molecule `N#CC1=C(N)Oc2cc(N)ccc2C1c1ccc(F)cc1` (stereo unspecified), the AC50 under setting [1] was 35.5 µM [rising, single point]. The same measure, in the same setting: in the case of `CCOc1ccc(CCNC(=O)c2nn(C)c3c2CSc2ccc(C)cc2-3)cc1OCC` it was 4.47 µM [rising, partial curve, poor fit]. Consider `N=c1c2c(-c3ccccc3)c(-c3ccccc3)n(Cc3ccccc3)c2ncn1CCO`, for which the concentration at half-maximal activity (AC50) runs as follows: under setting [2], 20 µM [falling, partial curve]; under setting [1], 12.6 µM [falling, partial curve]. `O=S(=O)(c1ccc(NC2CCCCC2)cc1)N1CCOCC1`: the AC50 under setting [1] was 20 µM [rising, single point]. Same read-out and setting: the same measure for `Cc1ccc(-c2noc(-c3cccs3)n2)cc1`: 31.6 µM [rising, single point]. For `COc1cc(NC(=S)N2CCC(C(O)(c3ccccc3)c3ccccc3)CC2)cc(OC)c1`, the AC50 by setting is: under setting [2], 31.6 µM [rising, single point]; under setting [1], 25.1 µM [rising, single point]. In the case of `O=C(NCCSCc1ccccc1)c1ccc(C2SCC(=O)N2Cc2ccccc2)cc1` (stereo unspecified), the AC50 under setting [1] was 35.5 µM [rising, single point]. Consider `COc1ccc(CCN(C)CCCC(C#N)(c2cc(OC)c(OC)c(OC)c2)C(C)C)cc1OC` (stereo unspecified), for which the AC50 runs as follows: under setting [2], 35.5 µM [falling, single point]; under setting [1], 0.562 µM [falling, partial curve, poor fit]. `Clc1ccccc1-c1nc(-n2ccnc2)c2ccccc2n1`: the AC50 reads like this: under setting [2], 3.98 µM [falling, full curve]; under setting [1], 10 µM [falling, partial curve]. Turning to `CCC(C)NC(=O)Cn1c(=O)c2cccn2c2ccc(F)cc21` (stereo unspecified), the AC50 runs as follows: under setting [2], 14.1 µM [rising, partial curve, poor fit]; under setting [1], 20 µM [rising, single point]. Regarding `Cn1c(SCC(=O)N/N=C/C=C\c2ccco2)nc2ccccc21`, the AC50 is, setting by setting: under setting [2], 35.5 µM [falling, single point]; under setting [1], 35.5 µM [falling, single point]. On to `CN(C)c1ccc(NC(=O)Cn2cc(S(=O)(=O)Cc3ccccc3Cl)c3ccccc32)cc1`, for which, under setting [2], the AC50 is 0.00282 µM [falling, full curve].

Consider `O=C(NCc1ccco1)c1ccc(COc2cccc3ccccc23)cc1`, for which, under setting [1], the AC50 is 22.4 µM [rising, partial curve, poor fit]. On to `Clc1cccc(-n2ncc3c(NC4CCCCCC4)ncnc32)c1`, for which the AC50 is, setting by setting: under setting [2], 20 µM [falling, partial curve, poor fit]; under setting [1], 31.6 µM [falling, partial curve]. Turning to `Cc1ccc(NC(=O)CSc2nc(N)c3cc4c(nc3n2)CCCC4)cc1`, the AC50 under setting [1] is 22.4 µM [rising, single point]. Same read-out and setting: the same measure for `Fc1ccccc1Nc1nc(-c2ccncc2)nc2ccccc12`: 11.2 µM [rising, partial curve]; for `O=C1C2CCCCN2C(=O)N1CCN1CCN(c2ccc([N+](=O)[O-])cc2)CC1` (stereo unspecified): 22.4 µM [rising, partial curve, poor fit]. On to `Nc1cccc(-c2ccc(CO)o2)c1`, for which the AC50 under setting [2] is 1.26 µM [rising, full curve, poor fit]. As to `OC(COCC1COc2ccccc2O1)CN1CCN(c2ccccc2F)CC1` (stereo unspecified), the concentration at half-maximal activity (AC50) was 5.62 µM [falling, single point] under setting [2] and 5.62 µM [falling, single point] under setting [1].

With `CCn1c(CNC(=O)c2ccccc2F)nnc1SCc1nc2ccccc2c(=O)[nH]1`, under setting [2], the AC50 was 3.16 µM [falling, partial curve, poor fit]. Turning to `CCCN1CCC(=NNc2ccc(S(=O)(=O)N3CCOCC3)cc2[N+](=O)[O-])CC1`, under setting [1], the AC50 was 7.94 µM [rising, partial curve, poor fit]. Turning to `Cc1ccc(NC(=O)c2cc(-c3ccccc3)nn2-c2ccccc2)c(Br)c1`, the AC50 runs as follows: under setting [2], 1.12 µM [rising, partial curve, poor fit]; under setting [1], 35.5 µM [rising, single point]. For `O=C(Cc1ccc(S(=O)(=O)N2CCOCC2)s1)Nc1nc2c(s1)CCCC2`, the AC50 is 22.4 µM [falling, single point] under setting [2] and 22.4 µM [falling, partial curve] under setting [1].

Turning to `COC(=O)CCCCCN1C(=O)NC(c2ccccc2)C(C(=O)OCc2ccccc2)=C1C` (stereo unspecified), the AC50 was 15.8 µM [rising, partial curve] under setting [2] and 12.6 µM [rising, partial curve, poor fit] under setting [1]. `CS(=O)(=O)c1ccc2nc(NC(=O)c3cccc(NS(=O)(=O)c4ccc(F)c(F)c4)c3)sc2c1`: under setting [1], the AC50 was 11.2 µM [rising, single point]. Still for that read-out and setting: in the case of `CSCCC(NS(=O)(=O)c1c(Cl)cccc1Cl)C(=O)O` (stereo unspecified) it was 0.0141 µM [rising, full curve, poor fit]; in that of `CCN(c1ccccc1)S(=O)(=O)c1cc(C(=O)Nc2ccccc2Cl)ccc1F`, 31.6 µM [rising, single point]; in that of `Cc1cc(S(=O)(=O)NCCc2csc(-c3cccc(F)c3)n2)ccc1F`, 12.6 µM [rising, single point]. Turning to `c1cncc(CSc2ccc(-c3cccs3)nn2)c1`, the AC50 runs as follows: under setting [2], 4.47 µM [rising, partial curve, poor fit]; under setting [1], 2.82 µM [rising, partial curve, poor fit].

In the case of `O=C(Nc1ccc(C2=NCCN2)cc1)c1ccc(C(=O)Nc2ccc(C3=NCCN3)cc2)c(Cl)c1`, the concentration at half-maximal activity (AC50) under setting [2] was 7.94 µM [rising, partial curve, poor fit].

As to `O=C(c1cccs1)N1CCN(S(=O)(=O)c2ccc(F)cc2)CC1`, the concentration at half-maximal activity (AC50) is 0.01 µM [rising, full curve] under setting [2] and 0.0112 µM [rising, full curve, poor fit] under setting [1].

`CCc1cccc(CC)c1NC(=O)/C(C#N)=C/c1ccccc1C(F)(F)F`: the AC50 is, setting by setting: under setting [2], 25.1 µM [falling, single point]; under setting [1], 22.4 µM [falling, single point]. Consider `O=C(O)c1ccc(Sc2nnc(-c3cccc(Br)c3)o2)c([N+](=O)[O-])c1`, for which the AC50 under setting [1] was 35.5 µM [rising, single point]. Still for that read-out and setting: the same measure for `Cc1ccc(C)c(NS(=O)(=O)c2cc(C(=O)NCCC3=CCCCC3)ccc2C)c1`: 10 µM [rising, partial curve]. Turning to `CC(C)Oc1ccccc1/C=N/Nc1ccccc1[N+](=O)[O-]`, the AC50 by setting is: under setting [2], 14.1 µM [rising, single point]; under setting [1], 20 µM [rising, partial curve]. As for `O=C(N/N=C/c1cccc(OCc2ccccc2)c1)c1cccs1`, the AC50 was 35.5 µM [falling, single point] under setting [2] and 35.5 µM [falling, single point] under setting [1].

On to `COc1ccc(-c2nnc(CSc3nc4ccccc4c(=O)n3CC(C)C)o2)cc1OC`, for which the AC50 under setting [1] was 3.55 µM [rising, single point].

With `CN(C)c1ccc(-c2nc(N(C)Cc3ccco3)c3ccccc3n2)cc1`, the AC50 under setting [2] is 11.2 µM [rising, single point]. As to `CN1CCN(c2ccc([N+](=O)[O-])cc2C(=O)c2ccccc2)CC1`, under setting [1], the AC50 is 15.8 µM [rising, single point].

For `O=C(O)C(O)c1ccccc1` (stereo unspecified), the half-maximal activity concentration (AC50) reads like this: under setting [2], 28.2 µM [rising, partial curve]; under setting [1], 35.5 µM [rising, partial curve, poor fit] and 7.94 µM [falling, partial curve, poor fit]. `Cn1c(SCC(=O)NNC(=O)Cc2ccccc2)nc2ccccc2c1=O`: the AC50 under setting [1] was 1 µM [rising, full curve]. Same read-out and setting: the same measure for `Cc1ccc(NC(=O)C(=O)NCC(c2ccc3c(c2)OCO3)N2CCN(C)CC2)cc1C` (stereo unspecified): 0.891 µM [falling, full curve, poor fit]. For the molecule `O=C(/C=C\c1ccco1)Nc1ccc(N2CCN(C(=O)c3ccccc3)CC2)cc1`, the AC50 by setting is: under setting [2], 0.251 µM [rising, partial curve, poor fit]; under setting [1], 35.5 µM [rising, single point]. As to `O=C(Nc1ccccc1N1CCOCC1)C1CCN(S(=O)(=O)c2cccc(C(F)(F)F)c2)CC1`, the AC50 under setting [1] was 20 µM [rising, single point]. With `C/C(=N\NC(=O)C(C)n1nc(C)c([N+](=O)[O-])c1C)c1ccccc1O` (stereo unspecified), the AC50 under setting [2] was 6.31 µM [rising, partial curve] and the AC50 under setting [1] is 14.1 µM [rising, partial curve]. As for `O=S(=O)(c1ccc(F)cc1)N1CCN(c2ccccn2)CC1`, under setting [1], the AC50 was 15.8 µM [rising, partial curve, poor fit].
